# Experiment: Odour description
row,Compound,Odour description
1,"Cc1ccc(C=O)c(CC(C)C)c1 [2-Isobutyl-4-methylbenzaldehyde, 2-isobutyl-4-methylbenzaldehyde]","green leathery, spicy saffron"
2,"Cc1cc(CC(C)C)ccc1C=O [4-Isobutyl-2-methylbenzaldehyde, 4-isobutyl-2-methylbenzaldehyde]","weak, green aromatic, thyme origanum, resinous, slightly isobutyl benzoate"
3,"Cc1cc(CCC=O)cc(CC(C)C)c1 [Compound 1, 3-(3-Isobutyl-5-methylphenyl)propanal]","green aldehydic, citrus juicy orange"
4,"CCOC(=O)CCc1cc(C)cc(CC(C)C)c1 [Compound 5, ethyl 3-(3-isobutyl-5-methylphenyl)propanoate]","sweet, fruity, candy"
5,"Cc1ccc(CCC=O)c(CC(C)C)c1 [Compound 7, 3-(2-isobutyl-4-methylphenyl)propanal]","green floral, animalic costus"

# From patent US10443018B2, “Phenyl based compounds substituted with aldehyde moieties and their use in perfumery” (GIVAUDAN SA, priority 2014, dated 2019)
